Laboratory results as given in publication PMC7418333.
These are yes or no findings as the source states them, for the method shown. In cells and extracts the contact can be indirect. Some results given as binding are weak or reduced against the parent protein; the word gives no strength. Tags and fused reporters may be left off the sequences shown.

T1: STAG2 (mouse (endogenous in mESCs v6.5)) (UniProt O35638)
T1 sequence: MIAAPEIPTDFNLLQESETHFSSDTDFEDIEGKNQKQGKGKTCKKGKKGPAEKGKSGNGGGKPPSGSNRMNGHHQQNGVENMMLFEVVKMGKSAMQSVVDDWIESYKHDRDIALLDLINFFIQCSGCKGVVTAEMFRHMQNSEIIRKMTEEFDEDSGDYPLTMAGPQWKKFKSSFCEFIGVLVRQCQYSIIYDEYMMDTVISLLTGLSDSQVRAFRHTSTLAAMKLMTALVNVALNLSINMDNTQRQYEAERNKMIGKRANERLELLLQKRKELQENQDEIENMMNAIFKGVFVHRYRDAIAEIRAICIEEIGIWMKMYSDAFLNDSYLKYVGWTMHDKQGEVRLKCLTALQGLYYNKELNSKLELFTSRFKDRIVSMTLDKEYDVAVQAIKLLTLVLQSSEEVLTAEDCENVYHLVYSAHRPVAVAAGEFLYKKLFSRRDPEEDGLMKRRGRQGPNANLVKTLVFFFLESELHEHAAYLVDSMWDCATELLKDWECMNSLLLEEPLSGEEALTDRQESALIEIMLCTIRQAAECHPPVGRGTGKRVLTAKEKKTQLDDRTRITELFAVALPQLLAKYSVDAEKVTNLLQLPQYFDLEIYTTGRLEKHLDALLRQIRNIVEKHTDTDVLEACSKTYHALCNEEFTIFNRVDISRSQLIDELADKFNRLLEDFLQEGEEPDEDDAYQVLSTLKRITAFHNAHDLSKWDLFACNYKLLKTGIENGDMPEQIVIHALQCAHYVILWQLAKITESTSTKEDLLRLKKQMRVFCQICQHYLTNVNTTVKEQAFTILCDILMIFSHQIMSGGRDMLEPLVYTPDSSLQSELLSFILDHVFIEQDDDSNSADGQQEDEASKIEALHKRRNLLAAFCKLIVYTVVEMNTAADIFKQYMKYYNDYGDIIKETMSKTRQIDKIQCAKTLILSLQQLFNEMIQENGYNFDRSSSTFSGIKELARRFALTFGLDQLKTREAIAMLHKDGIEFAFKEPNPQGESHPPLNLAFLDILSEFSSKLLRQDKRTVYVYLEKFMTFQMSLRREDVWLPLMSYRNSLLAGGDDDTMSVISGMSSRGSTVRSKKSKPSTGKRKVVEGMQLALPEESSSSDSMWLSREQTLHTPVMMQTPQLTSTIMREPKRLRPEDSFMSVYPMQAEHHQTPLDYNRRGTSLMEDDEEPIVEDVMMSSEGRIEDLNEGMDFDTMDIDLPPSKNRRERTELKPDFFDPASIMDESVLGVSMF

T2: STAG1 (mouse (endogenous in mESCs v6.5)) (UniProt Q9D3E6)
T2 sequence: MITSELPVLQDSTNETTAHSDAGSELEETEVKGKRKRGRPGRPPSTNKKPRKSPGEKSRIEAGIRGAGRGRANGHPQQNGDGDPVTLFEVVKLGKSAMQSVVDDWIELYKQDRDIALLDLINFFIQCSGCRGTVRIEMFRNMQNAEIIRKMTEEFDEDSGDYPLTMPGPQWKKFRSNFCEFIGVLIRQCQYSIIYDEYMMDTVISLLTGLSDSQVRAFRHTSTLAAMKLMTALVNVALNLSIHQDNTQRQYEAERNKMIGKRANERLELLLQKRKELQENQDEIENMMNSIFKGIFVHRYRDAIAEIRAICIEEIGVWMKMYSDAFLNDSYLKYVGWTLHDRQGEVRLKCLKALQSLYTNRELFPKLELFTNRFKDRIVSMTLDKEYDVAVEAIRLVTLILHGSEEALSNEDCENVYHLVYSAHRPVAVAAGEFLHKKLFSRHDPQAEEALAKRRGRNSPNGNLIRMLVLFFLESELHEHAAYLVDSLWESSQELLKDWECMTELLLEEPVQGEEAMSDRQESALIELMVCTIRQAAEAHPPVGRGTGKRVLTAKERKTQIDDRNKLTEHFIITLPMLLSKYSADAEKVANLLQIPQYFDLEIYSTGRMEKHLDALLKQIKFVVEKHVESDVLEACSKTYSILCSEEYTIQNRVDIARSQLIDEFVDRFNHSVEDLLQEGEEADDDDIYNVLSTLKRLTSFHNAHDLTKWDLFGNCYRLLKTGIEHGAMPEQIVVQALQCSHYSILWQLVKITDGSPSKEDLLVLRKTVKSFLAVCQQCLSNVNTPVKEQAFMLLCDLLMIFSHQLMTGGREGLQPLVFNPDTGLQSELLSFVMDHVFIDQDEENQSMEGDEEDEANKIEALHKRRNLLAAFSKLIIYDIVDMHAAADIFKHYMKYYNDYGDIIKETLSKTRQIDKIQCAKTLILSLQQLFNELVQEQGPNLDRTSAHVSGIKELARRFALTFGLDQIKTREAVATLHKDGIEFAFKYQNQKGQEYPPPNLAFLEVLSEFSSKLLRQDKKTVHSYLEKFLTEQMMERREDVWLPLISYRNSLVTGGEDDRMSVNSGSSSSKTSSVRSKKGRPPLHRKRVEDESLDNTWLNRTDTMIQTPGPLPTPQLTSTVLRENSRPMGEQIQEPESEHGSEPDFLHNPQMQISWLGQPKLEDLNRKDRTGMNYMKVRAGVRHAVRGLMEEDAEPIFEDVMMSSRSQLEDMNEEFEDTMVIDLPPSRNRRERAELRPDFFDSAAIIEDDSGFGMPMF


Tests used:
[1] = target: T1, STAG2 (mouse (endogenous in mESCs v6.5)); test: co-IP; endogenous proteins from mESC nuclear lysates, native conditions, nuclei digested with 10U Benzonase at 37 C for 15 min, 400 ug protein per IP, low stringency buffer, Protein G Dynabeads; western blot
[2] = target: T2, STAG1 (mouse (endogenous in mESCs v6.5)); test: as above

Row | binding [1] | binding [2] | Binder
1 | no binding |  | STAG1 (protein, UniProt Q9D3E6 1-1258) MITSELPVLQDSTNETTAHSDAGSELEETEVKGKRKRGRPGRPPSTNKKPRKSPGEKSRIEAGIRGAGRGRANGHPQQNGDGDPVTLFEVVKLGKSAMQSVVDDWIELYKQDRDIALLDLINFFIQCSGCRGTVRIEMFRNMQNAEIIRKMTEEFDEDSGDYPLTMPGPQWKKFRSNFCEFIGVLIRQCQYSIIYDEYMMDTVISLLTGLSDSQVRAFRHTSTLAAMKLMTALVNVALNLSIHQDNTQRQYEAERNKMIGKRANERLELLLQKRKELQENQDEIENMMNSIFKGIFVHRYRDAIAEIRAICIEEIGVWMKMYSDAFLNDSYLKYVGWTLHDRQGEVRLKCLKALQSLYTNRELFPKLELFTNRFKDRIVSMTLDKEYDVAVEAIRLVTLILHGSEEALSNEDCENVYHLVYSAHRPVAVAAGEFLHKKLFSRHDPQAEEALAKRRGRNSPNGNLIRMLVLFFLESELHEHAAYLVDSLWESSQELLKDWECMTELLLEEPVQGEEAMSDRQESALIELMVCTIRQAAEAHPPVGRGTGKRVLTAKERKTQIDDRNKLTEHFIITLPMLLSKYSADAEKVANLLQIPQYFDLEIYSTGRMEKHLDALLKQIKFVVEKHVESDVLEACSKTYSILCSEEYTIQNRVDIARSQLIDEFVDRFNHSVEDLLQEGEEADDDDIYNVLSTLKRLTSFHNAHDLTKWDLFGNCYRLLKTGIEHGAMPEQIVVQALQCSHYSILWQLVKITDGSPSKEDLLVLRKTVKSFLAVCQQCLSNVNTPVKEQAFMLLCDLLMIFSHQLMTGGREGLQPLVFNPDTGLQSELLSFVMDHVFIDQDEENQSMEGDEEDEANKIEALHKRRNLLAAFSKLIIYDIVDMHAAADIFKHYMKYYNDYGDIIKETLSKTRQIDKIQCAKTLILSLQQLFNELVQEQGPNLDRTSAHVSGIKELARRFALTFGLDQIKTREAVATLHKDGIEFAFKYQNQKGQEYPPPNLAFLEVLSEFSSKLLRQDKKTVHSYLEKFLTEQMMERREDVWLPLISYRNSLVTGGEDDRMSVNSGSSSSKTSSVRSKKGRPPLHRKRVEDESLDNTWLNRTDTMIQTPGPLPTPQLTSTVLRENSRPMGEQIQEPESEHGSEPDFLHNPQMQISWLGQPKLEDLNRKDRTGMNYMKVRAGVRHAVRGLMEEDAEPIFEDVMMSSRSQLEDMNEEFEDTMVIDLPPSRNRRERAELRPDFFDSAAIIEDDSGFGMPMF
2 | binds | binds | SMC1A (protein, UniProt Q9CU62 1-1233) MGFLKLIEIENFKSYKGRQIIGPFQRFTAIIGPNGSGKSNLMDAISFVLGEKTSNLRVKTLRDLIHGAPVGKPAANRAFVSMVYSEEGAEDRTFARVIVGGSSEYKINNKVVQLHEYSEELEKLGILIKARNFLVFQGAVESIAMKNPKERTALFEEISRSGELAQEYDKRKKEMVKAEEDTQFNYHRKKNIAAERKEAKQEKEEADRYQRLKDEVVRAQVQLQLFKLYHNEVEIEKLNKELASKNKEIEKDKKRMDKVEDELKEKKKELGKMMREQQQIEKEIKEKDSELNQKRPQYIKAKENTSHKIKKLEAAKKSLQNAQKHYKKRKGDMDELEKEMLSVEKARQEFEERMEEESQSQGRDLTLEENQVKKYHRLKEEASKRAATLAQELEKFNRDQKADQDRLDLEERKKVETEAKIKQKLREIEENQKRIEKLEEYITTSKQSLEEQKKLEGELTEEVEMAKRRIDEINKELNQVMEQLGDARIDRQESSRQQRKAEIMESIKRLYPGSVYGRLIDLCQPTQKKYQIAVTKVLGKNMDAIIVDSEKTGRDCIQYIKEQRGEPETFLPLDYLEVKPTDEKLRELKGAKLVIDVIRYEPPHIKKALQYACGNALVCDNVEDARRIAFGGHQRHKTVALDGTLFQKSGVISGGASDLKAKARRWDEKAVDKLKEKKERLTEELKEQMKAKRKEAELRQVQSQAHGLQMRLKYSQSDLEQTKTRHLALNLQEKSKLESELANFGPRINDIKRIIQSREREMKDLKEKMNQVEDEVFEEFCREIGVRNIREFEEEKVKRQNEIAKKRLEFENQKTRLGIQLDFEKNQLKEDQDKVHMWEQTVKKDENEIEKLKKEEQRHMKIIDETMAQLQDLKNQHLAKKSEVNDKNHEMEEIRKKLGGANKEMTHLQKEVTAIETKLEQKRSDRHNLLQACKMQDIKLPLSKGTMDDISQEEGSSQGEESVSGSQRTSSIYAREALIEIDYGDLCEDLKDAQAEEEIKQEMNTLQQKLNEQQSVLQRIAAPNMKAMEKLESVRDKFQETSDEFEAARKRAKKAKQAFEQIKKERFDRFNACFESVATNIDEIYKALSRNSSAQAFLGPENPEEPYLDGINYNCVAPGKRFRPMDNLSGGEKTVAALALLFAIHSYKPAPFFVLDEIDAALDNTNIGKVANYIKEQSTCNFQAIVISLKEEFYTKAESLIGVYPEQGDCVISKVLTFDLTKYPDANPNPNEQ
3 |  | no binding | STAG2 (protein, UniProt O35638 1-1231) MIAAPEIPTDFNLLQESETHFSSDTDFEDIEGKNQKQGKGKTCKKGKKGPAEKGKSGNGGGKPPSGSNRMNGHHQQNGVENMMLFEVVKMGKSAMQSVVDDWIESYKHDRDIALLDLINFFIQCSGCKGVVTAEMFRHMQNSEIIRKMTEEFDEDSGDYPLTMAGPQWKKFKSSFCEFIGVLVRQCQYSIIYDEYMMDTVISLLTGLSDSQVRAFRHTSTLAAMKLMTALVNVALNLSINMDNTQRQYEAERNKMIGKRANERLELLLQKRKELQENQDEIENMMNAIFKGVFVHRYRDAIAEIRAICIEEIGIWMKMYSDAFLNDSYLKYVGWTMHDKQGEVRLKCLTALQGLYYNKELNSKLELFTSRFKDRIVSMTLDKEYDVAVQAIKLLTLVLQSSEEVLTAEDCENVYHLVYSAHRPVAVAAGEFLYKKLFSRRDPEEDGLMKRRGRQGPNANLVKTLVFFFLESELHEHAAYLVDSMWDCATELLKDWECMNSLLLEEPLSGEEALTDRQESALIEIMLCTIRQAAECHPPVGRGTGKRVLTAKEKKTQLDDRTRITELFAVALPQLLAKYSVDAEKVTNLLQLPQYFDLEIYTTGRLEKHLDALLRQIRNIVEKHTDTDVLEACSKTYHALCNEEFTIFNRVDISRSQLIDELADKFNRLLEDFLQEGEEPDEDDAYQVLSTLKRITAFHNAHDLSKWDLFACNYKLLKTGIENGDMPEQIVIHALQCAHYVILWQLAKITESTSTKEDLLRLKKQMRVFCQICQHYLTNVNTTVKEQAFTILCDILMIFSHQIMSGGRDMLEPLVYTPDSSLQSELLSFILDHVFIEQDDDSNSADGQQEDEASKIEALHKRRNLLAAFCKLIVYTVVEMNTAADIFKQYMKYYNDYGDIIKETMSKTRQIDKIQCAKTLILSLQQLFNEMIQENGYNFDRSSSTFSGIKELARRFALTFGLDQLKTREAIAMLHKDGIEFAFKEPNPQGESHPPLNLAFLDILSEFSSKLLRQDKRTVYVYLEKFMTFQMSLRREDVWLPLMSYRNSLLAGGDDDTMSVISGMSSRGSTVRSKKSKPSTGKRKVVEGMQLALPEESSSSDSMWLSREQTLHTPVMMQTPQLTSTIMREPKRLRPEDSFMSVYPMQAEHHQTPLDYNRRGTSLMEDDEEPIVEDVMMSSEGRIEDLNEGMDFDTMDIDLPPSKNRRERTELKPDFFDPASIMDESVLGVSMF
